Assay results from PubChem BioAssay AID493014 (National Center for Advancing Translational Sciences (NCATS), 2011).
The list shows a part of the results. The main result of the screen is listed elsewhere. These columns were measured beside it and carry no call. Most of these compounds were active or inconclusive in the main read-out, so they are no random draw. The note in brackets gives the kind of curve behind each potency; many fits are weak.

Assay: qHTS Assay to Find Inhibitors of Chronic Active B-Cell Receptor Signaling
Conditions: ABC-DLBCL IkBa-CBG/CBR reporter, luminescence ratio (green luciferase fused to IkBa over red control in TMD8 lymphoma cells), 4 h
How it was run: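 TMD8 ABC-DLBCL cells carrying doxycycline-inducible green luciferase fused to IkappaBalpha plus unfused red luciferase were exposed to compounds (up to 46 uM) for 4 hrs at 37C. Activity came from the overlap-corrected green/red luminescence ratio.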

[1] = measured here: CBR red luminescence, cell number
[2] = measured here: IkBa-CBG green luminescence

| SMILES | AC50 [1] | AC50 [2] |
| --- | --- | --- |
| O=C1N(Cc2cccc(Cl)c2)C[C@@H]2C[C@@H](c3ccccn3)N3CCC[C@@]123 | 12.6 µM [falling, partial curve, poor fit] | – |
| CC1CCCCN1C(=O)CSc1nnc(-c2ccccc2F)o1 (stereo unspecified) | 6.31 µM [rising, single point] | – |
| COc1c(C)cc(S(=O)(=O)N2CCCC2)c(C)c1C | 16.4 µM [rising, partial curve, poor fit] | – |
| Cc1cccc(OCc2ccc(C(=O)Nc3ccc(F)cc3)cc2)c1 | 29.1 µM [rising, single point] | – |
| Cc1ccc(C)c(-n2nnnc2Sc2nnnn2-c2ccccc2)c1 | 7.08 µM [falling, partial curve] | – |
| CC(=O)C(=Nc1ccccc1Cl)NNc1ccc(Cl)cc1 | – | 32.6 µM [rising, partial curve, poor fit] |
| CCOc1ccc(N2C(=O)S/C(=C\c3ccc(O)c(OCC)c3)C2=O)cc1 | 35.5 µM [rising, single point] | – |
| C=CCN1CCN(C(CCC)c2nnnn2Cc2ccco2)CC1 (stereo unspecified) | 3.98 µM [falling, partial curve, poor fit] | – |
| COC(=O)[C@@H](NC(=O)c1ccccc1OC1CCN(S(C)(=O)=O)CC1)C(C)C | 35.5 µM [rising, single point] | – |
| CN(C)c1ccc(/C=N\NC(=S)SCN2C(=O)C3CCC(C)(C2=O)C3(C)C)cc1 (stereo unspecified) | 3.66 µM [rising, full curve, poor fit] | – |
| CCCCCCOc1ccc(C(=O)NCCCn2ccnc2)cc1 | 35.5 µM [rising, partial curve, poor fit] | – |
| Cc1cc(C(=O)Nc2ccccc2C)on1 | 11.2 µM [falling, single point] | – |
| CNC(=O)c1cc(C(=O)c2ccc(C(F)(F)F)cc2)c[nH]1 | 7.94 µM [rising, partial curve, poor fit] | – |
| CN(Cc1ccccc1)S(=O)(=O)c1ccc(NC(=S)NC(=O)C2CCCC2)cc1 | 10 µM [rising, partial curve] | – |
| COc1cccc(C(=O)NNC2=CC(=O)CC(C)(C)C2)c1 | 8.91 µM [falling, partial curve] | – |
| Cc1n[nH]c(=O)n1-c1ccc(OCc2ccccc2)cc1 | 1.26 µM [falling, partial curve] | – |
| Fc1ccc(Nc2nc(N3CCOCC3)c3ccccc3n2)cc1 | 11.2 µM [falling, partial curve] | – |
| O=C(/C=C/c1ccc2c(c1)OCO2)Nc1c(C(=O)O)[nH]c2ccccc12 | 10.3 µM [falling, partial curve, poor fit] | – |
| CC(c1ccccc1)n1c(-c2cccs2)nc2c(c(=O)c3ccccc3n2C)c1=O (stereo unspecified) | 0.1 µM [rising, full curve, poor fit] | – |
| c1ccc(-n2ncc3c2ncn2nc(-c4ccco4)nc32)cc1 | 10 µM [falling, single point] | – |
| Cc1[nH]c2ccccc2c1C(=O)COc1ccccc1F | 1.12 µM [falling, partial curve, poor fit] | – |

Another view of some results above:
SMILES,AC50 [1],AC50 [2]
Fc1ccc(Nc2nc(N3CCOCC3)c3ccccc3n2)cc1,"11.2 µM [falling, partial curve]",–
O=C(/C=C/c1ccc2c(c1)OCO2)Nc1c(C(=O)O)[nH]c2ccccc12,"10.3 µM [falling, partial curve, poor fit]",–
CC(c1ccccc1)n1c(-c2cccs2)nc2c(c(=O)c3ccccc3n2C)c1=O (stereo unspecified),"0.1 µM [rising, full curve, poor fit]",–
c1ccc(-n2ncc3c2ncn2nc(-c4ccco4)nc32)cc1,"10 µM [falling, single point]",–
Cc1[nH]c2ccccc2c1C(=O)COc1ccccc1F,"1.12 µM [falling, partial curve, poor fit]",–

(continued)

| SMILES | AC50 [1] | AC50 [2] |
| --- | --- | --- |
| Cc1cc(-c2ccccc2)n2nc(N)nc2n1 | 12.6 µM [falling, single point] | 17.8 µM [rising, partial curve, poor fit] |
| COc1cc(/C=N/NC(=O)c2c(-c3ccccc3)noc2C)cc(OC)c1OC | 29.1 µM [rising, single point] | 23.1 µM [falling, single point] |
| O=C(O)c1ccc(/C=N/Nc2nnnn2-c2ccccc2)cc1 | 20.6 µM [falling, partial curve] | – |
| Cc1cc(C(=O)N/N=C/c2ccc(-c3cccc(Cl)c3Cl)o2)n[nH]1 | 0.58 µM [rising, full curve] | – |
| Cc1nc(N[C@@H](Cc2c[nH]c3ccccc23)C(=O)O)c2oc3ccccc3c2n1 | 2.82 µM [falling, full curve] | – |
| CCOC(=O)N1CCc2[nH]c3ccc(C)cc3c2C1 | 3.98 µM [falling, full curve, poor fit] | – |
| COc1ccc(Br)cc1C1N2CC3(C)CN1CC(C)(C2)C3=O (stereo unspecified) | 20.6 µM [rising, single point] | – |
| COc1ccc(C(=O)N/N=C(\C)CC(=O)Nc2ccc3c(c2)OCCO3)c(OC)c1 | 3.55 µM [falling, partial curve, poor fit] | – |
| CCCn1nc(C(=O)N2CC(=O)Nc3ccccc32)c2ccccc2c1=O | 12.6 µM [rising, single point] | – |
| Cc1ccc(-c2nc(CN(C)C3CCOCC3)c(C)o2)s1 | 10 µM [rising, partial curve, poor fit] | – |
| COC(=O)CSc1ncnc2c1sc1nc(N3CCOCC3)c3c(c12)CCCC3 | 3.16 µM [rising, full curve, poor fit] | – |
| COCCCNC(=S)N/N=C/c1ccccc1O | 0.355 µM [falling, full curve, poor fit] | – |
| CCOC(=O)CSC1=N/C(=C/c2ccc(-n3cncn3)cc2)C(=O)N1C(C)=O | 3.55 µM [rising, partial curve, poor fit] | – |
| CCCCCCNC(=O)Cc1nc2nc(C)cc(C)n2n1 | 22.4 µM [rising, single point] | – |
| c1ccc(-c2csc(N3CCN(c4ccccn4)CC3)n2)cc1 | 14.1 µM [falling, single point] | – |
| CCOC(=O)c1c(C)cc(C)[nH]c1=O | 11.2 µM [rising, partial curve, poor fit] | – |
| O=C(Nc1ccc(OC(F)(F)F)cc1)C1CCCN(S(=O)(=O)c2cnc[nH]2)C1 (stereo unspecified) | 11.2 µM [falling, single point] | – |
| CCn1cc(C(=O)O)c(=O)c2cnc(N3CCN(C(=S)Nc4ccc(F)cc4)CC3)nc21 | 5.62 µM [rising, full curve, poor fit] | – |
| C=CCn1c(SCC(=O)NCCc2ccccc2)nnc1C1CC1 | 0.164 µM [rising, full curve] | – |
| C=C(C)CNC(=S)N=Nc1c(O)[nH]c2ccc([N+](=O)[O-])cc12 | – | 22.4 µM [falling, partial curve, poor fit] |
| O=C(N/N=C/c1ccc(Br)s1)c1ccncc1 | 31.6 µM [falling, single point] | 25.1 µM [falling, single point] |

| SMILES | AC50 [1] | AC50 [2] |
| --- | --- | --- |
| Cc1cccc(NC(=O)CNC(=O)COc2cccnc2[N+](=O)[O-])c1C | 29.1 µM [falling, single point] | – |
| C/C(CCC(=O)OC[C@H]1O[C@H](C#Cc2ccccc2)C=C[C@@H]1Oc1ccc(C)cc1)=N\OC[C@@H](O)[C@H]1O[C@@H]2OC(C)(C)O[C@@H]2[C@H]1O | 29.1 µM [falling, single point] | – |
| Cc1cccc(NC(=O)c2cc(S(=O)(=O)N3CCc4ccccc43)ccc2F)c1C | 11.2 µM [falling, partial curve, poor fit] | – |
| COC(=O)CN1C(=O)[C@H]2[C@@H](c3ccc(C)o3)N3C(=O)CN(CCO)C(=O)[C@@]3(C)[C@H]2C1=O | 5.01 µM [falling, single point] | – |
| CCc1ccc(NC(=O)Nc2ccc3c(c2)N(C)C(=O)CS3)cc1 | 2.91 µM [rising, single point] | – |
| Nc1n[nH]c(=S)n1/N=C1/C(=O)Nc2ccccc21 | 7.94 µM [falling, partial curve] | – |
| CSCCC(NC(N)=O)C(=O)NCc1ccc(Cl)cc1 (stereo unspecified) | 29.1 µM [rising, single point] | – |
| CCC(=O)Nc1cc(C)c(O)c(-c2nc3ncccc3o2)c1 | 35.5 µM [falling, single point] | – |
| O=C(c1ccco1)N1CCN(Cc2nc(-c3cccs3)no2)CC1 | 17.8 µM [rising, partial curve, poor fit] | – |
| CCN(CC)CCNC(=O)c1cc2c(s1)-c1ccccc1SC2 | 28.2 µM [falling, single point] | – |
| COc1cccc(-n2nc(C(C)=O)c(=O)[nH]c2=O)c1 | 0.316 µM [rising, full curve, poor fit] | – |
| O=C(CSc1nc2ccccc2c(=O)n1-c1ccccc1F)N1CCOCC1 | – | 2.91 µM [falling, partial curve, poor fit] |
| O=C(Cn1nc(-c2ccccc2)ccc1=O)NCCCN1CCOCC1 | 5.62 µM [rising, single point] | – |
| COC(=O)c1cc(CSc2nc3ccccc3[nH]2)oc1C | 1.64 µM [falling, full curve] | – |
| COc1cc2ccccc2cc1C(=O)Nc1sc2c(c1C(N)=O)CCN(C(C)C)C2 | 17.8 µM [falling, partial curve, poor fit] | – |
| CCOc1ccc(NC(=O)NCc2ccccn2)cc1 | 35.5 µM [falling, single point] | – |
| O=C1c2cccc(OCC(=O)N3CCCc4ccccc43)c2CCN1Cc1ccc(F)cc1 | 20.6 µM [falling, partial curve] | – |
| CCC(Sc1ncccc1C(=O)Oc1cccc([N+](=O)[O-])c1)C(=O)Nc1ccccc1OC (stereo unspecified) | 3.26 µM [falling, partial curve, poor fit] | – |
| CCC(c1nnc(SCC(=O)Nc2cc(S(C)(=O)=O)ccc2Cl)n1Cc1ccccc1)N(C)C (stereo unspecified) | 17.8 µM [rising, partial curve, poor fit] | – |
| Nc1nc(SCC(=O)NC2CCCCCC2)[nH]c(=O)c1-c1ccccc1 | 18.4 µM [falling, partial curve, poor fit] | – |
| COC(=O)c1c(C(=O)OC)c(C)n(Cc2cccnc2)c1C | 6.51 µM [rising, single point] | – |
